Source: publication PMC10155312
No constants are given. Whether binding was seen depends on the method and setting. Binding seen in cells or lysates may run through a third protein. Some binding calls cover weakened binding; strength is not graded here.

The chains behind the UniProt entries cited, without tags or fusion partners.
UniProt Q9DCJ1: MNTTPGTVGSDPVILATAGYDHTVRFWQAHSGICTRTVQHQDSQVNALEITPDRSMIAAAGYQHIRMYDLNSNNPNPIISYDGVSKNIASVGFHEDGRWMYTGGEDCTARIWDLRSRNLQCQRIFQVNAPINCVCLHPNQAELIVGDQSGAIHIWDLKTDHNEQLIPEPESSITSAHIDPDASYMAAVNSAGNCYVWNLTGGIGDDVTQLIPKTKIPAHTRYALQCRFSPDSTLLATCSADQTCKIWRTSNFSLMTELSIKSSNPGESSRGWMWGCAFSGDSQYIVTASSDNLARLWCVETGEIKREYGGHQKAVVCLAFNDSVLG

Key:
[1] = target: T1, Ufm1-binding protein 1 (mouse (endogenous in mouse liver)) (UniProt Q80WW9); assay: co-IP; lysate of fresh liver tissue of 2-month-old wild-type mice (1500 ug total protein, Pierce IP Lysis Buffer with protease inhibitors); antibodies against Ufl1, Ufbp1 or GβL, protein A/G plus agarose beads overnight at 4 °C; six washes in lysis buffer; western blot; IgG as negative control
T1 sequence: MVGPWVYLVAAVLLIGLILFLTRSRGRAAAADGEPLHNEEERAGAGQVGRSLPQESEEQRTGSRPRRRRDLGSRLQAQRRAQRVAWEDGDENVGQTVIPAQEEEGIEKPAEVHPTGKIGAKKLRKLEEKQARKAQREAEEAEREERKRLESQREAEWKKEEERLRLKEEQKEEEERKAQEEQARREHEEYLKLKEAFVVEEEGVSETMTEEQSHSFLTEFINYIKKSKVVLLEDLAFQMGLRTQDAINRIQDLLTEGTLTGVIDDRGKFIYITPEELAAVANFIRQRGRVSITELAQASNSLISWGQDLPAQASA

[2] = target: T2, Ufm1-specific ligase 1 (mouse (endogenous in mouse liver)) (UniProt Q8CCJ3); assay: as above
T2 sequence: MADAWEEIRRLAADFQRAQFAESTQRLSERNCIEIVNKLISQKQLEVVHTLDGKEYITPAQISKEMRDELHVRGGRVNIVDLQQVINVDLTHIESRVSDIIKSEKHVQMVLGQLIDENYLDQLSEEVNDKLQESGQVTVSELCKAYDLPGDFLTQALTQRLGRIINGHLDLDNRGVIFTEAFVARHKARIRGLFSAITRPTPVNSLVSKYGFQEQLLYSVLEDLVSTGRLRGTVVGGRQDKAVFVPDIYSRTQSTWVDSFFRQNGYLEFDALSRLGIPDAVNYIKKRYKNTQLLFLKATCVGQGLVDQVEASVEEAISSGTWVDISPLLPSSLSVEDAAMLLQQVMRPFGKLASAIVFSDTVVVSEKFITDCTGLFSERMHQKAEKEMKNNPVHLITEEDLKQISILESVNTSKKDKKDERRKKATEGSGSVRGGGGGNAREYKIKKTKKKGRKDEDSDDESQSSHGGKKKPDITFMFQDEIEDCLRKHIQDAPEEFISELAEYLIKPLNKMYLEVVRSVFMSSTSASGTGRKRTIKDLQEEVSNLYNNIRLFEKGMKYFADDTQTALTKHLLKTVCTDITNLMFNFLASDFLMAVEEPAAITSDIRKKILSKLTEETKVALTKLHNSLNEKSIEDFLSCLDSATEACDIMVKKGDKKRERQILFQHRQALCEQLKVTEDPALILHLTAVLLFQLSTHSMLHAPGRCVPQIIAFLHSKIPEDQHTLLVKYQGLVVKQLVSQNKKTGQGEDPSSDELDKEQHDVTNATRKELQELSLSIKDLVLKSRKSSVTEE

GβL (from UniProt Q9DCJ1 1-326) was tested, and the binding [1] was “binds” and the binding [2] was “binds”.
